The results in this text go back to publication PMC4931243.

These are yes or no findings as the source states them, for the method shown. Where a sequence is shown, tags or fusion partners need not be part of it.

The target of assay [1] is T1, MapZ_(extra2), C-terminal subdomain of the extracellular domain of MapZ (residues 355-464), His tag cleaved (Streptococcus pneumoniae R800) (UniProt Q8DR55).
T1 sequence: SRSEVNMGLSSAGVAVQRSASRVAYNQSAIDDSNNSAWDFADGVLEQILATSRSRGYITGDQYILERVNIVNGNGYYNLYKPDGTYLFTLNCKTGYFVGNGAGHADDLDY
The experiment in a line: condition: 0.5 μM MapZextra1 (highest concentration injected); SPR; BIAcore T100; MapZextra2 covalently coupled to a CM5 sensorchip, MapZextra1 injected at 0.01-0.5 μM, 30 μl/min, 10 mM HEPES pH 7.4, 150 mM NaCl, 0.005% surfactant P20; both purified. In general terms: SPR reads the build-up and loss of mass on a sensor chip optically.

Assay [2] has as its target T2, His7-MapZ_(extra1), 13C,15N-labelled N-terminal subdomain of the extracellular domain of MapZ (residues 182-313), tag not cleaved (Streptococcus pneumoniae R800) (UniProt Q8DR55).
T2 sequence: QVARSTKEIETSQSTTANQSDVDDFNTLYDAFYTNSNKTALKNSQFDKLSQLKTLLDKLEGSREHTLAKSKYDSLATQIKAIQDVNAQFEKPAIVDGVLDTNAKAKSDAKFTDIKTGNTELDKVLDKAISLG
Nature of the assay: condition: 100 μM MapZextra1 with two molar equivalents of MapZextra2; NMR titration; 2D [1H,15N]-BEST-TROSY of 100 μM 13C,15N-MapZextra1 before and after addition of two molar equivalents of 13C,15N-MapZextra2; 50 mM Tris, 100 mM NaCl, 10% D2O, pH 7.5, 298 K; both purified.

B1: MapZ_(extra1), N-terminal subdomain of the extracellular domain of MapZ (residues 182-313), His tag cleaved (domain or fragment, UniProt Q8DR55 182-313)
chain: T2 sequence
As for B1, in assay [1], the binding entry is on record as “no binding”.

B2: His7-MapZ_(extra2), 13C,15N-labelled C-terminal subdomain of the extracellular domain of MapZ (residues 355-464), tag not cleaved (domain or fragment, UniProt Q8DR55 355-464)
chain: T1 sequence
Turning to B2, in assay [2], the binding result is “no binding”.
